About 170 (0.05%) of roughly 340,000 compounds were called active. Inconclusive results, whose numbers are uncertain, are shown with a selection of clear calls. Calls follow the shape of the dose curve; as a rule, active = well fitted inhibition curve with a large enough effect in the signal ratio, with a control signal flat (not every such curve was filed as active); inconclusive = small, poorly fitted or top-dose-only effect, or effect the other way, or a change in a side signal; inactive = flat fitted curve, though single readings scatter; the % refers to the signal ratio. Potencies of inconclusive entries are doubtful fits and often do not repeat.
Test: qHTS Assay to Find Inhibitors of Chronic Active B-Cell Receptor Signaling;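 as to activity change, negative = inhibition: plate controls were basal doxycycline-induced cells for no effect and cells given 10 µM MG132 for full effect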
Settings: ABC-DLBCL IkBa-CBG/CBR reporter, luminescence ratio (green luciferase fused to IkBa over red control in TMD8 lymphoma cells), 4 h; activity change, negative = inhibition: at 46.1 µM (top of the series) unless noted
Outline: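 Doxycycline induced both beetle luciferases in TMD8 lymphoma cells; IKK-driven degradation limits the IkappaBalpha-fused green signal, while red luminescence normalises for cell number and nonspecific effects. Compounds tested up to 46 uM, 4 hrs.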
Potency is read from the fitted curve at half-maximal effect.

Compound	activity change, negative = inhibition	Potency
NC1=NC[C@H](c2ccccc2)N1CCCCC1CCCCC1	inactive	
CSc1ccccc1NC(=O)COc1ccc2c(c1)OCO2		inconclusive: 9.2 µM [falling, partial curve]
CC(C)c1cc(-c2cc(C(=O)NCc3ccccc3)on2)nc(NCC2CC2)n1	inactive	
CCSc1nnc(NC(=O)C(C)(C)C)s1	inconclusive: 0.961%	
O=C(NC1CCCCC1)c1ccc(N2CCOCC2)c([N+](=O)[O-])c1	inconclusive: 0.472%	
N#Cc1c(=O)c2nc(NCCCO)ncc2n2c(=O)c3ccccc3[nH]c12	inconclusive: -2.64%	
Cc1cc(SCC(=O)Nc2ccc(O)cc2)n2nc(C)c(-c3ccccc3)c2n1	inconclusive: -22.4%	
CNc1ccccc(C(=O)/C=C/c2ccccc2OC)c1=O		inconclusive: 20.6 µM [falling, partial curve]
CC(=O)c1c(C)[nH]c(C(=O)NCc2ccc(C)cc2)c1C	inconclusive: -3.12%	
CC1(C)CC(=O)C2=C(C1)OC(N)=C(C#N)C21C(=O)N(Cc2ccccc2Cl)c2ccccc21 (stereo not drawn)	inconclusive: -9.36%	
N#C/C(C(N)=O)=C1/CCc2ccccc2N1		inconclusive: 16.4 µM [falling, partial curve]
O=C1NCCOC(=O)[C@H](Cc2ccc(F)cc2)C/C=C\C[C@@H]1CC(=O)N(CCO)Cc1ccccc1	inconclusive: -1.87%	
Cc1nc2cc(NC(=O)Nc3ccccc3Cl)ccc2n1C		inconclusive: 22.4 µM [falling, partial curve]
O=C(Nc1nccs1)c1ccc(S(=O)(=O)N2CCOCC2)cc1	inconclusive: 17.9%	
COC(=O)CCc1c(C)c(C(=O)c2cc(OC)c(OC)c(OC)c2)c2ccccn12	inconclusive: 263%	
CCOC(=O)C1CCCN(C(=O)c2cc(Nc3ccc(OC)cc3OC)nc3ccccc23)C1 (stereo not drawn)	inconclusive: 47.7%	
O=C(NN=C1CCCCC1)c1ccccc1OCc1ccc(F)cc1		inconclusive: 18.4 µM [falling, single point]
Cc1cc(C(C)(C)C)ccc1NC(=O)CC(C)(C)CC(=O)O	inactive	
O=C(O)C(Cc1ccccc1)N1C(=O)/C(=C/c2ccccc2)SC1=S (stereo not drawn)	inconclusive: -2.8%	
CCCOC(=S)NC(=O)c1sc2ccccc2c1Cl		inconclusive: 14.1 µM [falling, single point]
CC(=O)Nc1ccc(S(=O)(=O)N2CCN(c3cnn(C)c(=O)c3Cl)CC2)cc1	inconclusive: 2.3%	
CC(NC(=O)CSc1nc2sc3c(c2c(=O)n1-c1ccccc1)CCCC3)c1ccccc1 (stereo not drawn)	inconclusive: 5.4%	
Cc1nnc(SC(C)C(=O)Nc2ccc(Cl)cn2)n1Cc1ccccc1 (stereo not drawn)	inactive	
O=C(COc1ccc(Br)cc1)NCC1COc2ccccc2O1 (stereo not drawn)	inconclusive: 1.21%	
CCOC(=O)c1ccc(NC(=O)c2ccc(NS(C)(=O)=O)cc2)cc1		inconclusive: 25.9 µM [falling, single point]
O=C(CCC(=O)Nc1ccc(Br)cc1)N/N=C/c1cc([N+](=O)[O-])ccc1O	inactive	

Structural class, those above containing an aryl methoxy group (three)
Compound	activity change, negative = inhibition	Potency
CNc1ccccc(C(=O)/C=C/c2ccccc2OC)c1=O		inconclusive: 20.6 µM [falling, partial curve]
COC(=O)CCc1c(C)c(C(=O)c2cc(OC)c(OC)c(OC)c2)c2ccccn12	inconclusive: 263%	
CCOC(=O)C1CCCN(C(=O)c2cc(Nc3ccc(OC)cc3OC)nc3ccccc23)C1 (stereo not drawn)	inconclusive: 47.7%	

Next part.

Compound	activity change, negative = inhibition	Potency
Cn1c(C(=O)NCc2ccccc2)cc2oc3ccccc3c21	inconclusive: -21.2%	
Cc1cc(OCc2cc(C(=O)N(C)C3CCOCC3)no2)cc(C)c1Cl		inconclusive: 35.5 µM [falling, single point]
O=C(NNC(=O)c1ccc(-n2cncn2)c([N+](=O)[O-])c1)c1ccccc1		inconclusive: 20.6 µM [falling, partial curve]
CCNCC(=O)N1c2ccccc2CCc2ccc(NC(=O)OC(C)C)cc21	inconclusive: -0.395%	
Cn1c(/C(C#N)=C/c2cccc(O)c2)nc2ccccc21		inconclusive: 15.8 µM [falling, partial curve, poor fit]
O=C(NCc1nc2ccccc2[nH]1)C1=C[C@@H](c2ccccc2)C[C@@H](OCCCCO)O1	inconclusive: -22.5%	
O=C(Cc1nc2ccccc2s1)c1ccc(O)cc1O		inconclusive: 0.0651 µM [rising, full curve, poor fit]
COc1cc(C(=O)COC(=O)c2cc([N+](=O)[O-])ccc2N2CCOCC2)ccc1OC(F)F	inconclusive: -58.7%	
CCCn1c(=O)c(C(=O)NNC(=O)c2ccccc2[N+](=O)[O-])c(O)c2ccccc21	inconclusive: -23.7%	
S=C(Nc1ccc(-c2nc3ccccc3[nH]2)cc1)Nc1cccnc1	inconclusive: -0.482%	
COc1ccc(CCNC(=O)C2c3ccccc3C(=O)N2Cc2ccccc2)cc1OC (stereo not drawn)	inactive	
COc1ccc2c(c1)c(=O)oc1cc(OCC(=O)N3CCc4ccccc4C3)ccc12		inconclusive: 13 µM [falling, partial curve, poor fit]
O=C(c1ccccc1Cl)N1CCN(S(=O)(=O)c2cccs2)CC1	inconclusive: 10.9%	
Cc1c(CCCN)c2ccccc2n1Cc1ccccc1	inconclusive: -29.4%	
CC(C)(C)c1ccc(NC(=O)N2CCCN(c3ccc([N+](=O)[O-])cn3)CC2)cc1	inactive	
Cn1c2ccccc2c(=O)c2cc(C#CC3(O)CCCCC3)ccc21		inconclusive: 0.562 µM [rising, full curve]
CC(C)N1CCc2c(sc(NC(=O)c3ccc(S(=O)(=O)N(C)CC4CCCO4)cc3)c2C(N)=O)C1 (stereo not drawn)	inactive	
CC(=O)Nc1ccc(S(=O)(=O)NC(C)C(=O)OCCOc2ccc(F)cc2)cc1 (stereo not drawn)	inconclusive: 2.73%	
COc1cccc(NC(=O)Nc2cccn(Cc3ccccc3)c2=O)c1	inconclusive: 0.113%	
O=C(Cc1ccccc1)N/N=C/c1cc(Br)cc(Cl)c1O	inconclusive: 0.63%	
COc1ccc(C(=O)N(Cc2ccccc2)c2cccc(C)c2)c(OC)c1OC	inconclusive: 8.52%	
COc1cccc(OCc2nnc(SCC(=O)NCc3ccco3)n2CCc2ccccc2)c1	inconclusive: 0.14%	
CC1=NN(c2nc3ccccc3s2)C(O)(C(F)(F)F)C1 (stereo not drawn)	inconclusive: 9.36%	
CCN1CCN(C(=S)c2ccc([N+](=O)[O-])cc2)CC1		inconclusive: 6.51 µM [falling, single point]
Cc1ccc(NC(=O)C2CCCN2S(=O)(=O)c2cccc3cccnc23)c(C)c1 (stereo not drawn)		inconclusive: 7.08 µM [falling, partial curve, poor fit]
COc1ccccc1Nc1ccc(NC(=O)c2cccc([N+](=O)[O-])c2C)cc1	inconclusive: -15.1%	

Compound	activity change, negative = inhibition	Potency
Cc1cnc(C(=O)Oc2c(C)ccc(C)c2C)cn1	inconclusive: 5%	
CCCOc1ccc(C2C(=O)N(C3CCCCCC3)CC(=O)N2Cc2ccco2)cc1OC (stereo not drawn)	inconclusive: -0.906%	
CN1CCN(c2ccc(Cl)cc2NC(=O)CN2C(=O)NC(C)(c3ccccc3)C2=O)CC1 (stereo not drawn)	inconclusive: -2.25%	
CC(=O)NC1C(Oc2ccccc2C)OC(CO)C(O)C1O (stereo not drawn)	inconclusive: 1.06%	
CC(C)c1ccc(N2C=Nc3ccc(C(C)C)cc3C2)cc1		inconclusive: 28.2 µM [falling, partial curve, poor fit]
COc1ccc(-c2csc(NC(=S)NC(=O)/C=C/c3ccco3)n2)cc1Br	inconclusive: -0.031%	
CSc1ccc(Cl)c(C(=O)OCC(=O)N2CC(C)OC(C)C2)c1 (stereo not drawn)		inconclusive: 29.1 µM [falling, single point]
COc1ccc(-c2noc(CSc3nc(-c4ccccc4)cc(=O)[nH]3)n2)cc1OC	inconclusive: 0.0374%	
CCc1nnc(N/N=C/c2ccc(-c3ccc([N+](=O)[O-])cc3)o2)n1N		inconclusive: 35.5 µM [falling, partial curve, poor fit]
N#C/C(=C/c1ccc(N2CCOCC2)o1)C(=O)NC1CCCCC1		inconclusive: 25.1 µM [falling, partial curve]
CCc1c(C)nc2c(-c3ccccc3)c(C)nn2c1Nc1ccc(NC(C)=O)cc1	inconclusive: -15.9%	
Cc1nc2nc(NCc3cccs3)nn2c(C)c1Cl		inconclusive: 18.4 µM [falling, single point]
CO/C=C\C=C/c1nnn(-c2ccc(Cl)cc2)n1	inconclusive: -17.8%	
CCc1ccccc1NC(=O)c1ccc(F)c(S(=O)(=O)N2CCN(c3ccccc3OC)CC2)c1	inactive	
O=C(NC(=O)N1CCN(c2ccc([N+](=O)[O-])cn2)CC1)c1ccccc1F	inactive	
CN(CC(=O)NC(=O)Nc1ccccc1F)Cc1ccccc1		inconclusive: 0.651 µM [rising, full curve, poor fit]
Cc1cccc(N/C=C/C(=C(C#N)C#N)N(C)C)c1	inconclusive: 1.18%	
Cc1ccc2nc(NCC(N)=O)nc(-c3ccccc3)c2c1	inconclusive: 20.9%	
CC(C)c1ccc(NC(=O)Nc2cc3sccc3n2C)cc1	inactive	
Oc1c(N=Nc2ccccc2)sc2ccccc12	inconclusive: 293%	
Cc1nnc(Oc2ccc([N+](=O)[O-])cc2)c2ccccc12	inconclusive: 13.4%	
COc1ccc(NC(C)C(=O)N/N=C/c2cc(Br)ccc2OC)cc1 (stereo not drawn)	inconclusive: -1.11%	
CC1=CC2=NC(=O)CC(C)(C(=O)N(CC(=O)NC3CCCC3)Cc3ccccc3)N2C=C1 (stereo not drawn)	inactive	
CCOCCCNc1nc2c(-c3ccccc3)nnn2c2ccccc12		inconclusive: 18.4 µM [falling, partial curve]
Nc1nc(NCCOCCO)nc(Nc2cccc(F)c2)c1[N+](=O)[O-]	inconclusive: -10.8%	
CCc1cc(SC#N)cc(C)c1NC(=O)CCl		inconclusive: 7.31 µM [falling, partial curve, poor fit]
